Screen size: about 220,000 compounds; about 770 (0.35%) were called active. This list was built around the results that the source calls inconclusive (neither active nor inactive); the mix of calls is not that of the screen. Cut-off read from the data, not from the text of the source: active = binding response below about 49% or above about 150%; inconclusive = no clear call, values can overlap the other calls; inactive = in between.
molecular target: Guanine nucleotide-binding protein G(o) subunit alpha (Homo sapiens) (UniProt P09471); test: RGS7-Galphao binding modulators, primary screen, biochemical, multiplexed bead flow cytometry (AID 1439); conditions: at 10 µM, actives lie on both sides;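 note: fluorescent Galphao held in activated GDP-AlF4 state binding bead-coupled RGS7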

Protein sequences, listed by entry. Tags and fused reporters are not part of them.
UniProt P09471, whole entry, looked up: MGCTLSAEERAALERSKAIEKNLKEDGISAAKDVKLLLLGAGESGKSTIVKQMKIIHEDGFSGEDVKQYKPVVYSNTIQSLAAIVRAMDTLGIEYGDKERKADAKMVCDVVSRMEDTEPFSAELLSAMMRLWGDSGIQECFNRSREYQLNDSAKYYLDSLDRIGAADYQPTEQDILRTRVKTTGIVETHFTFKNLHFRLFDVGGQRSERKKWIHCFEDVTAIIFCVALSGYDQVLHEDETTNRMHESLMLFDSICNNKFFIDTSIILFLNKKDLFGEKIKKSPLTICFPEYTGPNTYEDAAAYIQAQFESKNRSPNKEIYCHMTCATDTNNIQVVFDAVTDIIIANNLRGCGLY

| SMILES | binding response (% of control) |
| --- | --- |
| Cc1ccc(S(=O)(=O)NCc2c(Cl)cccc2Oc2ccccc2)cc1 | inconclusive: 109% |
| CCOC(=O)Nc1ccc(NC(=O)c2ccccc2F)cc1 | inconclusive: 124% |
| COc1ccc(CCN(C)CC(O)c2ccccc2)cc1OC (stereo not given) | inconclusive: 100% |
| CCCn1nnc(NC(=O)/C=C/c2ccco2)n1 | inconclusive: 261% |
| CC1COC(Cn2c3ccccc3c3ccccc32)O1 (stereo not given) | inconclusive: 102% |
| CC(C)(Cc1ccc(O)cc1)NC(=O)CC(=O)N=Nc1c(O)[nH]c2ccc(Br)cc12 | inconclusive: 110% |
| O=C1CC(Sc2ncccc2C(=O)O)C(=O)N1 (stereo not given) | inconclusive: 90% |
| O=C(CCNC(=O)c1ccccc1)N/N=C/c1ccc([N+](=O)[O-])cc1 | inconclusive: 83.3% |
| COC(=O)C(NC(C)=O)(Nc1nc2ccc(C)cc2s1)C(F)(F)F (stereo not given) | inactive: 108% |
| CCc1cccc(NC(=O)c2ccc(CNc3c(N4CCCC4)c(=O)c3=O)cc2)c1 | inconclusive: 142% |
| c1ccc2[nH]c(-c3ccncc3)nc2c1 | inconclusive: 99% |
| CCN1CCN(CC(=O)Nc2cc(C)on2)CC1 | inconclusive: 111% |
| Cc1cccn2cc(CCNS(=O)(=O)c3cccc([N+](=O)[O-])c3)nc12 | inconclusive: 77.2% |
| O=C(NCc1ccco1)/C(=C/c1cccnc1)NC(=O)c1ccco1 | active: 14.1% |
| Nc1nc(NCCCN2CCOCC2)nc(Nc2cccc(F)c2)c1[N+](=O)[O-] | inconclusive: 193% |
| COc1ccc(/C=N/Nc2ccccc2C(=O)O)cc1Cn1cc([N+](=O)[O-])cn1 | inconclusive: 109% |
| CCOc1ccccc1-c1c2cc(O)c(=O)cc-2oc2cc(O)c(O)cc12 | active: 42.3% |
| C/C(CC(=O)Nc1cccnc1)=N/NC(=O)COc1ccc(Cl)cc1Br | inconclusive: 115% |
| O=C(CCC1CCCN(C(=O)c2ccsc2)C1)NCc1ccc(F)c(F)c1 (stereo not given) | inactive: 97.3% |
| C=CCNC(=O)c1ccc(Cn2cc(C(F)(F)F)ccc2=O)cc1 | inconclusive: 131% |
| Cc1cc2nnc(SCC(=O)N3CCOCC3)n2c2ccccc12 | inconclusive: 65.1% |
| CCN1C(=O)C(CC(=O)Nc2ccc(Cl)cc2)N(NC(=O)c2ccncc2)C1=S (stereo not given) | inconclusive: 98.1% |
| Cc1onc(-c2c(F)cccc2Cl)c1C(=O)OCC(=O)NC(c1ccccc1)c1ccccc1 | inactive: 99.7% |
| O=C(NC1CCCC1)c1cc2nc(-c3ccccc3)cc(-c3ccccc3)n2n1 | inconclusive: 101% |
| O=C(NCC1CCCO1)c1cncc(Br)c1 (stereo not given) | inconclusive: 109% |

4 of these compounds in another layout:
SMILES | binding response (% of control)
COc1ccc(/C=N/Nc2ccccc2C(=O)O)cc1Cn1cc([N+](=O)[O-])cn1 | inconclusive: 109%
CCOc1ccccc1-c1c2cc(O)c(=O)cc-2oc2cc(O)c(O)cc12 | active: 42.3%
Cc1cc2nnc(SCC(=O)N3CCOCC3)n2c2ccccc12 | inconclusive: 65.1%
O=C(NCC1CCCO1)c1cncc(Br)c1 (stereo not given) | inconclusive: 109%
